Assay results reported in patent publication US4668663A (Merck & Co., Inc., priority 1984, dated 1987).
Strings that start with PEPTIDE1 are HELM notation: dots part the residues, brackets hold end groups and non-standard residues.

Assay: general procedure: Boc solid-phase peptide synthesis; BOC-Phe esterified to 2% cross-linked polystyrene-divinylbenzene; dicyclohexylcarbodiimide with 1-hydroxybenzotriazole hydrate
Settings: whole synthesis; for final HPLC purity / final purity (method not given): scale of the general procedure 2 mmol; for final purity (method not given): TLC

PEPTIDE1{[IVA].H.P.[BisHomoPhe].H.[Sta].L.F.[am]}$$$$V2.0
final HPLC purity: 92%
final purity (method not given): 90%

PEPTIDE1{[IVA].H.P.[Hph].H.[Sta].L.F.[am]}$$$$V2.0
final HPLC purity: 88%
final purity (method not given): 90%
isolated mass (scale 1 mmole): 145 mg
